The target in assay [1] is T1, human MPC1 fused to an 8xHis tag (human) (UniProt Q9Y5U8).
T1 sequence: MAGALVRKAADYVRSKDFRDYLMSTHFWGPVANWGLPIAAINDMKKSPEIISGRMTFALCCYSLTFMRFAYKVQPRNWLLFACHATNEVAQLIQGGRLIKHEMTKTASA
Kind of assay: co-purification (Co-IMAC, then gel filtration); co-expression set 1 in yeast 3Δ; membranes extracted with 1% DDM; MPC1-8xHis held on TALON cobalt beads, then Superdex 200 in 0.03% DDM; bands identified by mass spectrometry, MPC2-GFP by silver staining and in-gel fluorescence.

Sequences of proteins named here, by UniProt entry; tags and fusion partners are left off.
UniProt O95563: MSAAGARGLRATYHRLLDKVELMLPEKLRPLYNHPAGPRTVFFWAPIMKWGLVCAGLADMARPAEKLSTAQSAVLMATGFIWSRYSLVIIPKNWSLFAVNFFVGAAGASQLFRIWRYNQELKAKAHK
UniProt P02406: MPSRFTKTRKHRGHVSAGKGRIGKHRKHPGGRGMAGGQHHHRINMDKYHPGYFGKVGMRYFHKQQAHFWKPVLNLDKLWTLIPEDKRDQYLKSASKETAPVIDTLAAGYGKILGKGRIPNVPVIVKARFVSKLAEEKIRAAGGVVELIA

In the next assay the target is MPC2-GFP-10xHis (human) (UniProt O95563). Kind of assay: cross-linking; human MPC2 in isolated yeast mitochondrial extracts, 0.2 mM DSS (11.4 Å linker), electrophoretic separation.

No constants are given. Whether binding was seen depends on the method and setting. For some assays here: Binding seen in cells or lysates may run through a third protein. Some binding calls cover weakened binding; strength is not graded here. For some assays here: Tags and fused reporters may be left off the sequences shown.

Turning to “yeast 60 S ribosomal protein L28 (from UniProt P02406 1-149)”, in assay [1], the binding entry is listed as “binds”.

“MPC2-GFP-10xHis (from UniProt O95563 1-127)”: in the assay with MPC2-GFP-10xHis (human), the binding result was “binds”.

The values above are taken from article PMC5823908, “Human mitochondrial pyruvate carrier 2 as an autonomous membrane transporter” (Scientific Reports, 2018).
